Experimental data taken from US20040136985A1, “Methods of modifying behavior of CD9-expressing cells” (priority 2002, published 2004).
These are yes or no findings as the source states them, for the method shown. Some binding calls cover weakened binding; strength is not graded here.

Chains of the proteins cited; added tags and fusions are not shown. Lines headed by an entry give the natural chain unless they say otherwise; changes in a name come on top. A line that says so, or that is headed by a name, gives the form on record, which may keep a tag or linker.
human plasma fibronectin (P02751, form named): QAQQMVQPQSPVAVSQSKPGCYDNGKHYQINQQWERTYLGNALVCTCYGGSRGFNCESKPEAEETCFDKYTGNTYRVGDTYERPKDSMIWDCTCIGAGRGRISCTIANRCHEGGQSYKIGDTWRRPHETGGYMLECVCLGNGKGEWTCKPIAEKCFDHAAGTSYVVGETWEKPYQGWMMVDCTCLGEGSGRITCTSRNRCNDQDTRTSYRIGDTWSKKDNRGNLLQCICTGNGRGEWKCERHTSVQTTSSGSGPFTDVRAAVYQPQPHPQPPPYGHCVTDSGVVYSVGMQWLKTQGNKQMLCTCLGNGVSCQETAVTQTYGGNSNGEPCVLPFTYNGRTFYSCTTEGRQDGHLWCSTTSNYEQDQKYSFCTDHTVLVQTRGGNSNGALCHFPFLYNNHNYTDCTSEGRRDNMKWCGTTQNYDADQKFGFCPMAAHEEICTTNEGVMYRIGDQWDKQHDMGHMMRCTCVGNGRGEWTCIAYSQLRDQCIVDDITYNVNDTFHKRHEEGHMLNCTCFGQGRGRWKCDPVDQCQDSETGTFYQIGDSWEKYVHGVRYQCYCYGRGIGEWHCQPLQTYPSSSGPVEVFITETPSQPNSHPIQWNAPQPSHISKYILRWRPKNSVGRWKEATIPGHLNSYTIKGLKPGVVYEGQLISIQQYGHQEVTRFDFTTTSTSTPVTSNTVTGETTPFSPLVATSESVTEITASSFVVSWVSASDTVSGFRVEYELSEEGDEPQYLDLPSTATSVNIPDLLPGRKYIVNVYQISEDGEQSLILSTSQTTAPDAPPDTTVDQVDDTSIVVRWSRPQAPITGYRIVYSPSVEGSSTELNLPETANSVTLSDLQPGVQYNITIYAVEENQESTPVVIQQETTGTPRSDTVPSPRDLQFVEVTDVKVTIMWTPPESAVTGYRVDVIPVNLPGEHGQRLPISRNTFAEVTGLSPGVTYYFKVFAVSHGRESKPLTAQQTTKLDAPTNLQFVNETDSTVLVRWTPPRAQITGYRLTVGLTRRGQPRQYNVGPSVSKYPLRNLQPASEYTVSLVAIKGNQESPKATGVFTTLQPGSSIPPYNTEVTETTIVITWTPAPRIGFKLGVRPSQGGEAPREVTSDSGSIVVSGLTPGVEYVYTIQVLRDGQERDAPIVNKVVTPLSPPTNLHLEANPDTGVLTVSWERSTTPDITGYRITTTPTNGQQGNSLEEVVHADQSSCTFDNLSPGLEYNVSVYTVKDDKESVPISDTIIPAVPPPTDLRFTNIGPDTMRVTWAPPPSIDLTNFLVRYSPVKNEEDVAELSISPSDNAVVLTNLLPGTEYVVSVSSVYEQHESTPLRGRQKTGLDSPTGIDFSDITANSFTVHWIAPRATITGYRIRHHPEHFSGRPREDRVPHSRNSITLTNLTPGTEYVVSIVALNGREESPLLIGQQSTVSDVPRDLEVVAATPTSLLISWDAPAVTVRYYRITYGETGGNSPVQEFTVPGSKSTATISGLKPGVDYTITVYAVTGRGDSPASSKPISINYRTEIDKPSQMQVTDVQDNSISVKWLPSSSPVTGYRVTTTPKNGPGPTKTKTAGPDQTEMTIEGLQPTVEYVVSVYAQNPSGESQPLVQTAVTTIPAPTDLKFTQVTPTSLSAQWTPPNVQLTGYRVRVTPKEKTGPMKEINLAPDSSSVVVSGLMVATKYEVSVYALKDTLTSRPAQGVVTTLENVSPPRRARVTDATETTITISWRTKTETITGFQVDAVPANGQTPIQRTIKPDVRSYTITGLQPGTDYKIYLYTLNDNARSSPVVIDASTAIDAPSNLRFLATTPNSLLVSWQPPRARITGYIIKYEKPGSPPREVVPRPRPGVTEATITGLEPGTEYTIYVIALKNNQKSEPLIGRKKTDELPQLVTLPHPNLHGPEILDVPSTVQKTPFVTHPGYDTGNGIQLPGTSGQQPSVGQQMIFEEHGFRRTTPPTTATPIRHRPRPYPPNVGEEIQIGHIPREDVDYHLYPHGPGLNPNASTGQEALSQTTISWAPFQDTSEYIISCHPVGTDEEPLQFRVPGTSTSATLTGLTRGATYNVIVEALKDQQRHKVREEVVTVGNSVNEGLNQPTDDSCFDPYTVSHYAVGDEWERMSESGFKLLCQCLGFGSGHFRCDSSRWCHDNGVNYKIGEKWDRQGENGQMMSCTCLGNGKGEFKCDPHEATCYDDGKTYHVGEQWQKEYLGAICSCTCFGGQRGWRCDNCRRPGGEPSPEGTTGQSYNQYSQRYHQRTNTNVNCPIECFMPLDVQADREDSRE

Tests used:
[1] = target: human plasma fibronectin (human) (UniProt P02751); assay: competition ELISA, FN on immobilized CD9
[2] = target: human plasma fibronectin (human) (UniProt P02751); assay: competition ELISA, peptide 40 µM in solution against FN binding to immobilized CD9
[3] = target: human plasma fibronectin (human) (UniProt P02751); assay: competition ELISA, peptide 6 titrated 0-160 µM against FN binding to immobilized CD9

binding [1]: binds
binding [2]: binds
binding [3]: binds
Binder: PKKDVLETFTVKSCPDAIKEVFDNK [peptide 6]
